# Publication PMC12481580 (Journal of Medicinal Chemistry, 2025)
# HELM strings list residues between dots; [ac] is acetyl, [am] amide, other brackets name non-standard units.
# Tests used:
# [1] = general procedure: Fmoc solid-phase peptide synthesis; 2-ClTrt resin (Fmoc-TMSAla-2-ClTrt, 1.00 mmol/g); HOBt/HBTU/DIPEA; settings: whole synthesis, hydrotrifluoroacetate (TFA salt); for final HPLC purity: 220 nm; for isolated yield: scale 50 mg, 1.00 mmol/g
# [2] = general procedure: Fmoc solid-phase peptide synthesis; Fmoc-TMSAla-2-ClTrt resin; HOBt/HBTU/DIPEA; settings: whole synthesis, 1.00 mmol/g
# [3] = scale 50 mg, hydrotrifluoroacetate (TFA salt)
# [4] = scale 75 mg, Tris(hydrotrifluoroacetate)
# [5] = scale 75 mg, hydrotrifluoroacetate (TFA salt)
Substance,final HPLC purity [1],"isolated mass ([2]; scale 50 mg, Tris(hydrotrifluoroacetate))","isolated yield [2, 3]","isolated mass [2, 4]","isolated yield [2, 5]",isolated yield [1],"isolated mass [2, 3]"
Lys-Lys-Pro-Tyr-Ile-β-trimethylsilyl-Ala Tris(hydrotrifluoroacetate),>99%,29.4 mg,52%,–,–,–,–
PEPTIDE1{R.R.P.Y.I.[TMSAla]}$$$$V2.0,>99%,–,–,34.1 mg,38%,–,–
PEPTIDE1{[NMeArg].R.P.Y.I.[TMSAla]}$$$$V2.0,>99%,–,–,40.3 mg,44%,–,–
PEPTIDE1{[NMeArg].R.P.[bbdiMe-D-Tyr].I.[TMSAla]}$$$$V2.0,97%,–,–,–,–,34%,21.1 mg
PEPTIDE1{[NMeArg].R.P.[bbdiMe-L-Tyr].I.[TMSAla]}$$$$V2.0,99%,–,–,–,–,37%,23.0 mg
